The other results are listed elsewhere or left out.
Experiments:
Experiment in all cases: log2 fold change, soluble protein after heating vs DMSO (PISA); higher = thermal stabilisation; K562 cells, 10 uM, 30 min; active = over 0.2 and 3.5 SD of the protein, either way, in both replicates (recomputed)
[1] = compound: CC[C@@H]1C(=O)N(C)c2cnc(Nc3ccc(C(=O)NC4CCN(C)CC4)cc3OC)nc2N1C1CCCC1
In short: (§1)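 K562 cells at 2×10^6 cells/mL were given 10 μM compound for 30 min. Aliquots then went through 3 min of heating across 48°C-58°C, were pooled, and were extracted in PBS with 0.5% NP-40 at 4°C, and the supernatant after 21,000xg for 90 min was quantified by TMTpro 16plex LC-MS/MS with channel sums equalised. Thermal stability relative to control samples, from duplicates, is given as log2 fold change.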

Protein sequences, listed by entry. Tags and fused reporters are not part of them. Lines headed by an entry give the natural chain unless they say otherwise; changes in a name come on top.
UniProt P63165, whole entry, looked up: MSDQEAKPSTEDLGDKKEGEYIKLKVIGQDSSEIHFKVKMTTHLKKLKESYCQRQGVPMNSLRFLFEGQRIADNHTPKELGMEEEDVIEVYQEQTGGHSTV
UniProt Q9H2K8: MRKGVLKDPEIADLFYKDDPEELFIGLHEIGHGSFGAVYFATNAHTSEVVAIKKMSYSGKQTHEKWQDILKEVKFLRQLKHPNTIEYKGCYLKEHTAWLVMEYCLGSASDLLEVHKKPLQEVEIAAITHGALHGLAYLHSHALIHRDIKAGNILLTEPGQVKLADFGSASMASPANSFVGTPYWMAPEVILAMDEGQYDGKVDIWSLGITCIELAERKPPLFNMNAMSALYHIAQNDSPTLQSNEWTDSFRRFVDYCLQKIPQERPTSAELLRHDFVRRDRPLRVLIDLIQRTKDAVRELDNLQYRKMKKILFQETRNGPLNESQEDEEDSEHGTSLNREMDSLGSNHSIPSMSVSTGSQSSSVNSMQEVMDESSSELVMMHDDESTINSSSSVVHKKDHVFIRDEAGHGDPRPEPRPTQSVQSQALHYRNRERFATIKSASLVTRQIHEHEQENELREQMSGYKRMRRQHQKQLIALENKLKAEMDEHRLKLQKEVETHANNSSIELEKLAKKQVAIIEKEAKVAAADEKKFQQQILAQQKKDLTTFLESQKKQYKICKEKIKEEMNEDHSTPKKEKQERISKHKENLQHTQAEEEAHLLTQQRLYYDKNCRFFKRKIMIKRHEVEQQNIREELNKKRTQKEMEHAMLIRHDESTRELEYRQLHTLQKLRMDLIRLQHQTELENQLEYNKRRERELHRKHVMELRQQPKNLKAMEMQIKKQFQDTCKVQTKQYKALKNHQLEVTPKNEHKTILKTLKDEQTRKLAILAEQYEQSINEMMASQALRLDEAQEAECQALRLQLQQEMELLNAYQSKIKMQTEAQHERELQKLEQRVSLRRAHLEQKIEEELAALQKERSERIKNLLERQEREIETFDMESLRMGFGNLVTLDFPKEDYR
UniProt Q9Y5B9, whole entry, looked up: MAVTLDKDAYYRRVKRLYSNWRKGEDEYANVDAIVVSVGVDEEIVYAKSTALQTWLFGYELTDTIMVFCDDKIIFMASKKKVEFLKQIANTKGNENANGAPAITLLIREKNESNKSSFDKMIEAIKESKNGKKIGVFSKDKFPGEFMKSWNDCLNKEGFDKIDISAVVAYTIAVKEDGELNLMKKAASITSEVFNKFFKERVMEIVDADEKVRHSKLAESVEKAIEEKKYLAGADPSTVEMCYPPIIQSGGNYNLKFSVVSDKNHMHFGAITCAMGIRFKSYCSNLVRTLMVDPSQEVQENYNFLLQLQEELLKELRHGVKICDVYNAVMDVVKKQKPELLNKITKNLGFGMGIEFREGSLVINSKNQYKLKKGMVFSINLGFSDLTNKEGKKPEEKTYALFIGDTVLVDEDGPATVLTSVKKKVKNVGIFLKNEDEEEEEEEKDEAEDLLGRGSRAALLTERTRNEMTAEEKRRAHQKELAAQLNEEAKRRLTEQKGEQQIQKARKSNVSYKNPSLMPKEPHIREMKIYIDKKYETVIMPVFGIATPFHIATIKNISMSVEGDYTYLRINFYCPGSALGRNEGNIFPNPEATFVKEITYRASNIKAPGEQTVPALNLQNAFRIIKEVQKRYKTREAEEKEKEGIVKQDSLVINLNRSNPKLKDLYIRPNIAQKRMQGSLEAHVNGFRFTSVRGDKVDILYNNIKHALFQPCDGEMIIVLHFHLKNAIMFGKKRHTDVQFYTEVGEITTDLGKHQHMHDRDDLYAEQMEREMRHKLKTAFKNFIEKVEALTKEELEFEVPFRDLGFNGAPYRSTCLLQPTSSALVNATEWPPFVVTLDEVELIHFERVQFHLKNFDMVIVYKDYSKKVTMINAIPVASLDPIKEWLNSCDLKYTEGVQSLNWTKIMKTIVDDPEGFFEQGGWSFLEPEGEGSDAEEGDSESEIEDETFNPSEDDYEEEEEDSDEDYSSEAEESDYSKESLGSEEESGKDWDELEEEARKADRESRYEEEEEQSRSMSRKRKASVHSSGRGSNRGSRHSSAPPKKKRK
UniProt O15400: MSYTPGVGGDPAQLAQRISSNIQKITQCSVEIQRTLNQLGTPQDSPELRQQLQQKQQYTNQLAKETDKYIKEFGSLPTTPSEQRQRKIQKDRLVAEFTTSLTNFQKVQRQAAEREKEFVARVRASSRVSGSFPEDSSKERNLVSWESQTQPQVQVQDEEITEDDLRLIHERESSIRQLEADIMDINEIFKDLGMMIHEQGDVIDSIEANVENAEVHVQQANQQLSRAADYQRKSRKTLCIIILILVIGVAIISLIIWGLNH
UniProt Q15527: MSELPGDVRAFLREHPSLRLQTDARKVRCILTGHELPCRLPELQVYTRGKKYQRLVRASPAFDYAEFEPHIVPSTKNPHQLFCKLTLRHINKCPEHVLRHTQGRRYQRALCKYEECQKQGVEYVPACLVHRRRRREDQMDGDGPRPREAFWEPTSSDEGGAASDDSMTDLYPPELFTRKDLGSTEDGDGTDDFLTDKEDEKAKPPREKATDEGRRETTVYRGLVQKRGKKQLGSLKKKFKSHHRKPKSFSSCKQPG
UniProt O94901, whole entry, looked up: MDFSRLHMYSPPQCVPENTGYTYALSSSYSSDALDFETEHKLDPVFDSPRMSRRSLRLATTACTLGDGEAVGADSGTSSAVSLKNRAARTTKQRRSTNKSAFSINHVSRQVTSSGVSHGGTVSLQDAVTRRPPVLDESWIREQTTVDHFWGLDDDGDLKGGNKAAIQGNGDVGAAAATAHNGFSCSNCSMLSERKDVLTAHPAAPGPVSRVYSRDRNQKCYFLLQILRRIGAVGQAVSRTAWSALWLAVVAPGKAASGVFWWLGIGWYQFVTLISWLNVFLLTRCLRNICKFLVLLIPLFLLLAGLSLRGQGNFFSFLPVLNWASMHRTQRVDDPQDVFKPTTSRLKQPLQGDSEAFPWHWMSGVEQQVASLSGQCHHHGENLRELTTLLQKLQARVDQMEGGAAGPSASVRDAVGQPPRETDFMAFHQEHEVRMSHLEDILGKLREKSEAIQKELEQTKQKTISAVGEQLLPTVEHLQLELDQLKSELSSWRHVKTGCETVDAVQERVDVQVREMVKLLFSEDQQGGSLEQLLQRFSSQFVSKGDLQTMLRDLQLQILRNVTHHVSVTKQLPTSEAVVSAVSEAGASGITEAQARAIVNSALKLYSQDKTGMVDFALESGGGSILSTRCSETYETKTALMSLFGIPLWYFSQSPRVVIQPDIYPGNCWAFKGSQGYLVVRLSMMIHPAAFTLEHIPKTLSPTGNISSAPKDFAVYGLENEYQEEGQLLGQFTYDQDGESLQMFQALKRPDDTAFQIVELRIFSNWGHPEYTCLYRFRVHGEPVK
UniProt Q8IWZ8: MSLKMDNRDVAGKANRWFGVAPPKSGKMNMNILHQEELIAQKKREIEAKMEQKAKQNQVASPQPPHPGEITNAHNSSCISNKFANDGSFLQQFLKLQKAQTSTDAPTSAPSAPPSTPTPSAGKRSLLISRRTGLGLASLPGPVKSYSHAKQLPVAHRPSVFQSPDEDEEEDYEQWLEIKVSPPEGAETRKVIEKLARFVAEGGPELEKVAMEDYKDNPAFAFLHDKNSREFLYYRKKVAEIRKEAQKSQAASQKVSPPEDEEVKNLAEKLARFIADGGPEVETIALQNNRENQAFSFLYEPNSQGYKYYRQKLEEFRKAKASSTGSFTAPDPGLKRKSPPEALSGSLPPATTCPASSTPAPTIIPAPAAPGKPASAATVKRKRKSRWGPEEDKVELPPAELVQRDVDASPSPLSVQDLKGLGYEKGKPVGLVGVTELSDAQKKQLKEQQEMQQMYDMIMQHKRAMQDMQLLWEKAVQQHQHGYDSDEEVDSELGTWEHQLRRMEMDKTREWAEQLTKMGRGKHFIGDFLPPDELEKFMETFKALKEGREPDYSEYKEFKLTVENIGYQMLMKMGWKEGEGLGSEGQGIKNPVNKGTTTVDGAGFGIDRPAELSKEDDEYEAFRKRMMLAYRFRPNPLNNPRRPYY
UniProt Q8N300: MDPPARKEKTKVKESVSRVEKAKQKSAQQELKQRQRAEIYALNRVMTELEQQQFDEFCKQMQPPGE
UniProt P61956, whole entry, looked up: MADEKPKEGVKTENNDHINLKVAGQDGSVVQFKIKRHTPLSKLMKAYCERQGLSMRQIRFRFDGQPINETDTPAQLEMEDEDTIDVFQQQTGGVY
UniProt P56962: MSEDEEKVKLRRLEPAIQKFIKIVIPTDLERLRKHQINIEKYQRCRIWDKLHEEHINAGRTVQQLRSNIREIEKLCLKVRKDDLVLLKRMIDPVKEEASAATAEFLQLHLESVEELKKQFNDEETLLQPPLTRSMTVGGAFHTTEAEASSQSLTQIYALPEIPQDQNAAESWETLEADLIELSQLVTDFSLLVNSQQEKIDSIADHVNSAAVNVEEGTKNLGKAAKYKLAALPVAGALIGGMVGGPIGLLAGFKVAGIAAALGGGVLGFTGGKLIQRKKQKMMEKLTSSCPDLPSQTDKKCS
UniProt Q15833: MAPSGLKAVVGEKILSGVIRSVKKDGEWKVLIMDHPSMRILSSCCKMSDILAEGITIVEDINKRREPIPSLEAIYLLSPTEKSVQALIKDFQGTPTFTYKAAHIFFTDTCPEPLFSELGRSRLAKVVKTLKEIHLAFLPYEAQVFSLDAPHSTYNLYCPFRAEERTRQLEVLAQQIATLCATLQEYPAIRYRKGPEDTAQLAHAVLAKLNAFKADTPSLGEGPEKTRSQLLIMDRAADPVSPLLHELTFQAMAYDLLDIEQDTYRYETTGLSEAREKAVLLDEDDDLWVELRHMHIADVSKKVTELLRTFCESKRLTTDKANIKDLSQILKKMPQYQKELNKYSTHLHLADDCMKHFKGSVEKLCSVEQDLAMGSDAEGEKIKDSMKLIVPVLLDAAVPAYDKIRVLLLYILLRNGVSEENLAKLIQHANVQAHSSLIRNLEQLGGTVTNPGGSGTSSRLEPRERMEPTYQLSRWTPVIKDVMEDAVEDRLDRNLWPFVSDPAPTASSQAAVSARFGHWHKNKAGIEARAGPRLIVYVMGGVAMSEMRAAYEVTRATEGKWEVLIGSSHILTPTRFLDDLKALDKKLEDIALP
UniProt Q8N2H4: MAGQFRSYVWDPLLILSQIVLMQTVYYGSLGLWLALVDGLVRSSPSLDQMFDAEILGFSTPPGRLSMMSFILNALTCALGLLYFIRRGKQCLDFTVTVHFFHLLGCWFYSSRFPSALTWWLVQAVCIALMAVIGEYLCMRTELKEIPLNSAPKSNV
UniProt Q01995: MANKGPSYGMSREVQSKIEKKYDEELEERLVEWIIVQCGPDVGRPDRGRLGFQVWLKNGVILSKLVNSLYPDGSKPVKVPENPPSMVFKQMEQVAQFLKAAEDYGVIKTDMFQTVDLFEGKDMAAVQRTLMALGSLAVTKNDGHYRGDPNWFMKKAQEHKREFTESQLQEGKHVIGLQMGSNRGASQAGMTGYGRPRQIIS
UniProt Q9C0B7: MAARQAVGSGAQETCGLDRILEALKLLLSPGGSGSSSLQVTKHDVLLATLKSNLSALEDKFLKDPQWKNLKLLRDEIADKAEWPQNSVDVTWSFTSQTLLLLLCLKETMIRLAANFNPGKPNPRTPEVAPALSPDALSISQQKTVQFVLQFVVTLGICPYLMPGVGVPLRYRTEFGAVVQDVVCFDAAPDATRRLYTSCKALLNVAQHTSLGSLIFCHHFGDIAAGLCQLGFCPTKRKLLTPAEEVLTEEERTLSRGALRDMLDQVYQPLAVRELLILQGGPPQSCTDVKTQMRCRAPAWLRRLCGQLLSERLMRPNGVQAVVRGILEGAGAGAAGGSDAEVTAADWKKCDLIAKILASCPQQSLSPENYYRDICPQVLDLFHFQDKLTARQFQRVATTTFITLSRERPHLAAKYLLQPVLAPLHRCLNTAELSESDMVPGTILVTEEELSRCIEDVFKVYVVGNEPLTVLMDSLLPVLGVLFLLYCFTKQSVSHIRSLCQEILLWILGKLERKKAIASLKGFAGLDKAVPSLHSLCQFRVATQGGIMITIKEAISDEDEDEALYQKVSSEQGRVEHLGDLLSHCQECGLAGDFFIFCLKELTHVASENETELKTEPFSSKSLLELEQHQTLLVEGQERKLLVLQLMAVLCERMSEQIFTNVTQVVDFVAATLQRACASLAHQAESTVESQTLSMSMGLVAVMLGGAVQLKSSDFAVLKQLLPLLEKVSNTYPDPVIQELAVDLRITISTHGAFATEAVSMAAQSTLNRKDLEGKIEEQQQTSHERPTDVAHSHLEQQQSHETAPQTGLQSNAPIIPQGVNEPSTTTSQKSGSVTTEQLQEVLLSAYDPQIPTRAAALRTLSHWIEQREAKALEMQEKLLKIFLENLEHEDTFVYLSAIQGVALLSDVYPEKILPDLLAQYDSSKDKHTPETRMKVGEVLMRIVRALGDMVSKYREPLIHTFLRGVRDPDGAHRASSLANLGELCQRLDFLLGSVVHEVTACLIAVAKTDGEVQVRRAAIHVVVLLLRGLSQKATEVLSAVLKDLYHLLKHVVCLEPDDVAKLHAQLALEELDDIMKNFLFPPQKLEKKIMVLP

volasertib = compound: CC[C@@H]1C(=O)N(C)c2cnc(Nc3ccc(C(=O)N[C@H]4CC[C@H](N5CCN(CC6CC6)CC5)CC4)cc3OC)nc2N1C(C)C [volasertib]
In short: as §1

[2] = compound: CC[C@H](C)N1C=C(C2=C(C=C(C=C21)C3=CN=C(C=C3)N4CCNCC4)C(=O)NCC5=C(C=C(NC5=O)C)C)C
In short: as §1

epoxomicin = compound: CC[C@H](C)[C@@H](C(=O)N[C@@H]([C@@H](C)O)C(=O)N[C@@H](CC(C)C)C(=O)[C@]1(CO1)C)NC(=O)[C@H]([C@@H](C)CC)N(C)C(=O)C [epoxomicin]
In short: as §1

[3] = compound: CCn1cc(-c2ccnc3[nH]c(-c4cccc(CN(C)C)c4)cc23)c(-c2ccc(NC(=O)N(C)C)cc2)n1
In short: as §1

[4] = compound: CN(C)CC(=O)Nc1ccc2[nH]c(=O)c3ccccc3c2c1
In short: as §1

[5] = compound: CN1C2=C(C3=C1C(=O)N(N=C3)CC4=CC(=CC=C4)N)SC(=C2)S(=O)C
In short: as §1

[6] = compound: CN1CCC(CNc2ccc3ncc(-c4cccc(OC(F)(F)F)c4)n3n2)CC1
In short: as §1

saracatinib = compound: CN1CCN(CCOc2cc(OC3CCOCC3)c3c(Nc4c(Cl)ccc5c4OCO5)ncnc3c2)CC1 [saracatinib]
In short: as §1

sotrastaurin = compound: CN1CCN(c2nc(C3=C(c4c[nH]c5ccccc45)C(=O)NC3=O)c3ccccc3n2)CC1 [sotrastaurin]
In short: as §1

Tubastatin A = compound: CN1CCc2c(c3ccccc3n2Cc2ccc(C(=O)NO)cc2)C1 [Tubastatin A]
In short: as §1

[7] = compound: CNC(=O)C1=CC=CC=C1NC2=NC(=NC=C2Cl)NC3=C(C=C(C=C3)N4CCOCC4)OC
In short: as §1

defactinib = compound: CNC(=O)c1ccc(Nc2ncc(C(F)(F)F)c(NCc3nccnc3N(C)S(C)(=O)=O)n2)cc1 [defactinib]
In short: as §1

rucaparib = compound: CNCc1ccc(-c2[nH]c3cc(F)cc4c3c2CCNC4=O)cc1 [rucaparib]
In short: as §1

[8] = compound: CNc1nc(-c2ccc3c(N)n[nH]c3c2)cc(N2C[C@@H](C(=O)NC3CCCCC3)CC[C@H]2C)n1
In short: as §1

encorafenib = compound: COC(=O)N[C@@H](C)CNc1nccc(-c2cn(C(C)C)nc2-c2cc(Cl)cc(NS(C)(=O)=O)c2F)n1 [encorafenib]
In short: as §1

[9] = compound: COC(=O)[C@H](CCSC)NC(=O)C1=C(C=C(C=C1)NC[C@H](CS)N)C2=CC=CC=C2
In short: as §1

[10] = compound: CCn1c(C(=O)N(C2CC2)C2CC2)cc2c3c(ncn3C)c(Nc3cc(C)n(C)n3)nc21
In short: as §1

rosiglitazone = compound: CN(CCOC1=CC=C(C=C1)C[C@H]2C(=O)NC(=O)S2)C3=CC=CC=N3 (racemic) [rosiglitazone]
In short: as §1

alvocidib = compound: CN1CC[C@H](c2c(O)cc(O)c3c(=O)cc(-c4ccccc4Cl)oc23)[C@H](O)C1 [alvocidib]
In short: as §1

Measured: log2 fold change

SUMO1 (UniProt P63165)
inactive: [1] 0.034 | volasertib -0.035 | [2] -0.046 | epoxomicin -0.011 | [3] 0.015 | [4] 0.021 | [5] 0.038 | [6] 0.007 | saracatinib -0.112 | sotrastaurin 0.011 | Tubastatin A -0.073 | [7] 0.022 | defactinib -0.067 | rucaparib 0.056 | [8] -0.09 | encorafenib -0.029 | [9] 0.028

TAOK3 (UniProt Q9H2K8)
inactive: [1] -0.005 | volasertib -0.083 | [2] 0.058 | epoxomicin 0.007 | [3] -0.019 | [4] 0.059 | [5] -0.067 | [6] -0.059 | saracatinib -0.002 | sotrastaurin -0.089 | Tubastatin A 0.042 | [7] -0.031 | defactinib -0.109 | rucaparib -0.013 | [8] 0.019 | encorafenib 0.052 | [9] -0.044

SUPT16H (UniProt Q9Y5B9)
active: defactinib -0.476
inactive: [1] -0.426 | volasertib -0.363 | [2] 0.095 | epoxomicin 0.085 | [3] -0.089 | [4] 0.285 | [5] -0.02 | [6] -0.198 | saracatinib -0.125 | sotrastaurin -0.209 | Tubastatin A 0.374 | [7] 0.034 | rucaparib -0.104 | [8] 0.024 | encorafenib 0.113 | [9] -0.138

SUPT5H (UniProt O00267)
inactive: [1] -0.018 | [2] 0.084 | epoxomicin 0.062 | [3] -0.065 | [4] 0.056 | [5] -0.056 | [6] -0.117 | saracatinib -0.01 | sotrastaurin -0.021 | Tubastatin A 0.007 | [7] -0.004 | defactinib -0.126 | rucaparib -0.062 | [8] 0.039 | encorafenib 0.076 | [9] -0.017
active: volasertib -0.224

TAF12 (UniProt Q16514)
inactive: [1] -0.037 | volasertib -0.018 | [2] -0.097 | [10] 0.012 | [3] -0.002 | [4] 0.089 | rosiglitazone 0.034 | [6] -0.02 | sotrastaurin -0.056 | Tubastatin A 0.114 | [7] -0.032 | defactinib 0.023 | rucaparib -0.005 | encorafenib 0.308 | [9] -0.044

SURF1 (UniProt Q15526)
active: volasertib -0.274 | [6] -0.311
inactive: [1] -0.085 | [2] -0.055 | epoxomicin 0.012 | [3] -0.059 | [4] 0.013 | [5] -0.016 | saracatinib 0.034 | sotrastaurin -0.084 | Tubastatin A -0.03 | [7] 0.026 | defactinib -0.012 | rucaparib -0.083 | [8] -0.092 | encorafenib 0.017 | [9] -0.105

STX7 (UniProt O15400)
inactive: [1] -0.021 | volasertib 0.057 | [2] -0.03 | epoxomicin -0.008 | [3] 0.094 | [4] -0.006 | [5] 0.005 | [6] -0.116 | saracatinib 0.063 | sotrastaurin 0.026 | Tubastatin A -0.036 | [7] 0.013 | defactinib -0.033 | rucaparib 0.028 | [8] -0.014 | encorafenib -0.039 | [9] -0.02

SURF2 (UniProt Q15527)
inactive: [1] -0.002 | volasertib -0.046 | [2] 0.014 | epoxomicin 0.04 | [3] -0.078 | [4] 0.037 | [5] -0.043 | [6] 0.024 | saracatinib 0.034 | sotrastaurin -0.02 | Tubastatin A 0.066 | [7] -0.015 | defactinib -0.056 | rucaparib -0.055 | [8] -0.059 | encorafenib -0.037 | [9] -0.016

SUN1 isoform 9 (UniProt O94901)
inactive: [1] 0.13 | volasertib 0.018 | [2] -0.065 | epoxomicin -0.021 | [3] 0.135 | [4] 0.002 | [5] 0.037 | [6] -0.111 | saracatinib -0.023 | sotrastaurin -0.178 | Tubastatin A -0.048 | [7] -0.108 | defactinib 0.049 | rucaparib 0.083 | [8] -0.038 | encorafenib -0.018 | [9] -0.029

STOM (UniProt P27105)
inactive: [1] 0.087 | volasertib 0.096 | [2] -0.08 | epoxomicin -0.006 | [3] -0.164 | [4] -0.057 | [5] 0.085 | saracatinib -0.015 | sotrastaurin 0.039 | Tubastatin A 0.016 | [7] -0.019 | defactinib 0.068 | rucaparib 0.006 | [8] -0.03 | encorafenib 0.016 | [9] 0.002
active: [6] 0.317

SUGP1 (UniProt Q8IWZ8)
inactive: [1] -0.155 | [2] 0.056 | epoxomicin 0.062 | [3] -0.007 | [4] 0.021 | [5] -0.028 | [6] -0.081 | saracatinib 0.012 | sotrastaurin -0.049 | Tubastatin A 0.052 | [7] -0.043 | defactinib -0.124 | rucaparib -0.016 | [8] -0.074 | encorafenib -0.003 | [9] -0.02
active: volasertib -0.341

SVBP (UniProt Q8N300)
inactive: [1] 0.032 | volasertib 0.046 | epoxomicin 0.087 | [3] -0.15 | [4] 0.02 | rosiglitazone 0.067 | [5] -0.074 | [6] -0.041 | saracatinib 0.077 | sotrastaurin 0.083 | alvocidib -0.096 | Tubastatin A 0.046 | defactinib -0.02 | rucaparib 0.08 | [8] 0.004 | encorafenib -0.012 | [9] 0.031

SUMO2 (UniProt P61956)
inactive: [1] -0.019 | volasertib 0.163 | [2] -0.101 | [10] 0.04 | [3] 0.018 | [4] -0.113 | rosiglitazone -0.104 | [5] 0.086 | [6] -0.025 | saracatinib 0.153 | sotrastaurin 0.114 | alvocidib 0.076 | Tubastatin A -0.118 | [7] -0.076 | defactinib 0.012 | rucaparib -0.034 | [8] -0.142 | encorafenib -0.008 | [9] 0.145

STX17 (UniProt P56962)
inactive: [1] -0.273 | [2] -0.06 | epoxomicin 0.062 | [3] 0.011 | [4] -0.02 | [5] -0.126 | [6] -0.278 | saracatinib -0.038 | sotrastaurin 0 | Tubastatin A 0.044 | [7] 0.021 | defactinib -0.266 | rucaparib 0.152 | [8] 0.127 | encorafenib 0.091 | [9] -0.001
active: volasertib -0.357

STXBP2 isoform 3 (UniProt Q15833)
inactive: [1] -0.015 | volasertib -0.217 | [2] 0.138 | epoxomicin -0.006 | [3] -0.025 | [4] 0.02 | [5] 0.116 | [6] -0.072 | saracatinib -0.138 | sotrastaurin -0.242 | Tubastatin A 0.085 | [7] -0.091 | defactinib -0.133 | rucaparib 0.157 | [8] 0.142 | encorafenib 0.176 | [9] -0.203

SYS1 (UniProt Q8N2H4)
inactive: [1] -0.082 | volasertib -0.386 | [10] 0.054 | [3] -0.068 | [5] 0.084 | [6] -0.084 | saracatinib 0.233 | [7] 0.071 | rucaparib -0.095 | [8] -0.261 | encorafenib 0.019

SULT1A1 (UniProt P50225)
active: volasertib -0.445
inactive: [1] -0.159 | [2] 0.091 | epoxomicin 0.026 | [3] -0.106 | [4] 0.105 | [5] 0.072 | [6] -0.208 | saracatinib 0.052 | sotrastaurin -0.03 | Tubastatin A -0.004 | [7] 0.105 | defactinib -0.214 | rucaparib -0.048 | [8] 0.05 | encorafenib 0.084 | [9] -0.125

TAGLN (UniProt Q01995)
inactive: [1] 0.08 | volasertib -0.06 | [10] -0.899 | [3] 0.358 | rosiglitazone 0.115 | [5] 0.737 | [6] 0.211 | saracatinib 0.551 | sotrastaurin 0.101 | [7] -0.517 | rucaparib 0.059 | [8] -0.083 | encorafenib 0.1

TANGO6 (UniProt Q9C0B7)
active: volasertib -0.375
inactive: [1] 0.276 | [2] 0.052 | epoxomicin 0.035 | [5] 0.006 | saracatinib -0.09 | sotrastaurin -0.135 | Tubastatin A 0.116 | [7] -0.077 | rucaparib 0.586 | [8] 0.037 | encorafenib 0.001

From the supplement of paper PMC10849652
